The other results are listed elsewhere or left out.
The targets below were run with COC1=CC=C(C=C1)CN2C=CC3=C2C=C(C=C3)C(=O)NO (assay: log2 fold change, soluble protein after heating vs DMSO (PISA); higher = thermal stabilisation; K562 cells, 10 uM, 30 min; active = over 0.2 and 3.5 SD of the protein, either way, in both replicates (recomputed)).
Outline: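 K562 cells at 2×10^6 cells/mL were given 10 μM compound for 30 min. Aliquots then went through 3 min of heating across 48°C-58°C, were pooled, and were extracted in PBS with 0.5% NP-40 at 4°C, and the supernatant after 21,000xg for 90 min was quantified by TMTpro 16plex LC-MS/MS with channel sums equalised. Thermal stability relative to control samples, from duplicates, is given as log2 fold change.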

Sequences of proteins named here, by UniProt entry; tags and fusion partners are left off. A change or cut given only in a name is not applied to a line headed by its entry.
UniProt Q13625: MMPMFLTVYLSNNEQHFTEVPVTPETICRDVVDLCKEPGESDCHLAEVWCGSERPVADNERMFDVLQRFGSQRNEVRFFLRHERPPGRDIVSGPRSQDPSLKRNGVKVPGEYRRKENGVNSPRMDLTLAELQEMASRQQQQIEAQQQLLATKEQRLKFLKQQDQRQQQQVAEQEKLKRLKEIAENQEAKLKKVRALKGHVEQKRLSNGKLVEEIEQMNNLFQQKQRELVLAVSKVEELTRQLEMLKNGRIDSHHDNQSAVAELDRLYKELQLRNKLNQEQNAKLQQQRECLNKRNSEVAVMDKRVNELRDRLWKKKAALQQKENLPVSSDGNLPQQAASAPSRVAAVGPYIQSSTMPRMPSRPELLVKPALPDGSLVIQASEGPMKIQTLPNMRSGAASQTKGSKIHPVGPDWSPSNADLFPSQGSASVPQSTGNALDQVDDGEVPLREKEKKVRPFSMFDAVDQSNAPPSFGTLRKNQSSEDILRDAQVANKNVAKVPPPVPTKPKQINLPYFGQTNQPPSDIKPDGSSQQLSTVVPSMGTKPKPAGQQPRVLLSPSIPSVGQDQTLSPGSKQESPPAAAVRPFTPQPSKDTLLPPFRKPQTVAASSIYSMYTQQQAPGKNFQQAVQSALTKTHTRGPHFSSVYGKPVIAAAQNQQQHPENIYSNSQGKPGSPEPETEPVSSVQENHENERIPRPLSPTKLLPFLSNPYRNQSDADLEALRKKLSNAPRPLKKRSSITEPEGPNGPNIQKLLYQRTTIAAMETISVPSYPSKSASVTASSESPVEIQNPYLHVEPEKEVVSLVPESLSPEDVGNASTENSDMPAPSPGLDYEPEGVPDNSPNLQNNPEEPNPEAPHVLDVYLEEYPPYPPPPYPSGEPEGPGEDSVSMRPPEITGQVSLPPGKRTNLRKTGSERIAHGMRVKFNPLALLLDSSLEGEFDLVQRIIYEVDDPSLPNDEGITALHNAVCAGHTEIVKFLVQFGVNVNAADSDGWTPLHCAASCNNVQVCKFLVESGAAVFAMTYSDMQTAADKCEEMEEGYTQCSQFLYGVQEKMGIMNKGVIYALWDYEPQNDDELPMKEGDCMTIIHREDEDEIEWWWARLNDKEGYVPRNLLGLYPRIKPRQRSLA
UniProt Q9BW30: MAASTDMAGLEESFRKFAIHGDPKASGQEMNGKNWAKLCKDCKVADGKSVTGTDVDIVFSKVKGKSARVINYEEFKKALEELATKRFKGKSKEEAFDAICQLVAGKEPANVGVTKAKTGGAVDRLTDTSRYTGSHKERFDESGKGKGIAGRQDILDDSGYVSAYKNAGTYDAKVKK
UniProt O60784, whole entry, looked up: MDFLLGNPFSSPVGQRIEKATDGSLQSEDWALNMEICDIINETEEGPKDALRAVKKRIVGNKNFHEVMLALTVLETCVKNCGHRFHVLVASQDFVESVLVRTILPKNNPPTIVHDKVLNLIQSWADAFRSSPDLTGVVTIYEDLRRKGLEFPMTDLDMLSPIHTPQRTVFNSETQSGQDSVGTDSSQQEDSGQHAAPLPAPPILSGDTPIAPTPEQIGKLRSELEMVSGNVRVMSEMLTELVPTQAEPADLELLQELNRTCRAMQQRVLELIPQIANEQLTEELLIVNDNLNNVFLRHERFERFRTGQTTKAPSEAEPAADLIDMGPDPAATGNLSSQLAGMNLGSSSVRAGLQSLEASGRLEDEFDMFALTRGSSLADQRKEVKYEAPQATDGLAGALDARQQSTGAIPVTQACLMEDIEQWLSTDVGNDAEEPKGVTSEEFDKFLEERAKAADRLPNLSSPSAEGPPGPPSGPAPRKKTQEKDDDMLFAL
UniProt Q9H3S4: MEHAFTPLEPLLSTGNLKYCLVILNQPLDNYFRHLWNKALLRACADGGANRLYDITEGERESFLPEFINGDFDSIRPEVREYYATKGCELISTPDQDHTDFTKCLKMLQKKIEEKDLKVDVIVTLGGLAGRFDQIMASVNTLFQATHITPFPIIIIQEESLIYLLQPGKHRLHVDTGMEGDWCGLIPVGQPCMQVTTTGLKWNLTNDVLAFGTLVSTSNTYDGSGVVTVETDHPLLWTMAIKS
UniProt Q9UPQ9, whole entry, looked up: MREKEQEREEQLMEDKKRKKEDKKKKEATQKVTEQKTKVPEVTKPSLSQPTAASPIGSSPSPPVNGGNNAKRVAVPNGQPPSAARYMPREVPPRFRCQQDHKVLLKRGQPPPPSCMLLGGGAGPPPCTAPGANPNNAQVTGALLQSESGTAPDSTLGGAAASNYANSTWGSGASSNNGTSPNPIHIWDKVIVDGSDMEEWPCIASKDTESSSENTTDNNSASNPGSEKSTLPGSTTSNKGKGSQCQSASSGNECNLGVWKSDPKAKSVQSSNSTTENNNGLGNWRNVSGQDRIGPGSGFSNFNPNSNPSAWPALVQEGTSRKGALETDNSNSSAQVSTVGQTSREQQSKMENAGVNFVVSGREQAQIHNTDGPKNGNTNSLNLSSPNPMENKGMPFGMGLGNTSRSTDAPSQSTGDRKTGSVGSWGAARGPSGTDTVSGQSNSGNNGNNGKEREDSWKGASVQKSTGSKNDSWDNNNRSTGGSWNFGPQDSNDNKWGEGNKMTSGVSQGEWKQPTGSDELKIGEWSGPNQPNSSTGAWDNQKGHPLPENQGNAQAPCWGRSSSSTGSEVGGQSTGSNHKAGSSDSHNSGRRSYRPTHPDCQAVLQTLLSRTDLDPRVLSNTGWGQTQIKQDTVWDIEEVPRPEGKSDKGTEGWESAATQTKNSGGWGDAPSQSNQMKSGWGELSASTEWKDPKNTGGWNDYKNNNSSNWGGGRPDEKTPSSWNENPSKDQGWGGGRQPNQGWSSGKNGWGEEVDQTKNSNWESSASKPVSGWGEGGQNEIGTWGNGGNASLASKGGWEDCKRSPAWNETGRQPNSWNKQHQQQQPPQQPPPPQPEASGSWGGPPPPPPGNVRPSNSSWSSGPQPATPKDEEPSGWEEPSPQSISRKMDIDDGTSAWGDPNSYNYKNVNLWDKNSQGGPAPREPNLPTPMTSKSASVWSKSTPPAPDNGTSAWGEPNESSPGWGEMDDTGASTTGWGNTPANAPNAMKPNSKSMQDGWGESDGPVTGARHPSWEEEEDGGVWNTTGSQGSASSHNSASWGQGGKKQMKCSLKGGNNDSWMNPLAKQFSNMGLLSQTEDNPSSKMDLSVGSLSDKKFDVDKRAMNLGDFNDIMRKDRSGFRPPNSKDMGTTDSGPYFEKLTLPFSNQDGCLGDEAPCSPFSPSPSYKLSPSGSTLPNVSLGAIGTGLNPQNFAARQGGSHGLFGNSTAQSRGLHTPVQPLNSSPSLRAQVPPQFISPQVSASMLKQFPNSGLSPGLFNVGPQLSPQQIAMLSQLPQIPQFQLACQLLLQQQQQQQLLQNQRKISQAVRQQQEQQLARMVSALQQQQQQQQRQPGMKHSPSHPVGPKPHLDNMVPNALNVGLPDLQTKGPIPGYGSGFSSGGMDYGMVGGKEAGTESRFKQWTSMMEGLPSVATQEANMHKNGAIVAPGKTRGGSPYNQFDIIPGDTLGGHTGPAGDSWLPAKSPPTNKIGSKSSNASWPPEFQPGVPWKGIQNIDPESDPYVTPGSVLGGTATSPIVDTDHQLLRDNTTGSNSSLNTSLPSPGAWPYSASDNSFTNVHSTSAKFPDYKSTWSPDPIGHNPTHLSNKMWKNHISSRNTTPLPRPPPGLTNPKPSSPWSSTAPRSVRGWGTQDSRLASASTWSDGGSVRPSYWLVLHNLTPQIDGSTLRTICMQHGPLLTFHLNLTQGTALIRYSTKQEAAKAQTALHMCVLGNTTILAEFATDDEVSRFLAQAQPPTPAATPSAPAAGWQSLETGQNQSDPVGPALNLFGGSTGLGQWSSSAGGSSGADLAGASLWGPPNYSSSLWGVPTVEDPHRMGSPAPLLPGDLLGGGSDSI
UniProt Q9Y5R8, whole entry, looked up: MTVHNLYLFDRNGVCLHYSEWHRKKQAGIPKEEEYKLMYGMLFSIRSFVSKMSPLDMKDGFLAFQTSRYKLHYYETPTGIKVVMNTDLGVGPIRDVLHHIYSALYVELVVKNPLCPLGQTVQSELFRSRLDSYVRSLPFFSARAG
UniProt Q7Z392: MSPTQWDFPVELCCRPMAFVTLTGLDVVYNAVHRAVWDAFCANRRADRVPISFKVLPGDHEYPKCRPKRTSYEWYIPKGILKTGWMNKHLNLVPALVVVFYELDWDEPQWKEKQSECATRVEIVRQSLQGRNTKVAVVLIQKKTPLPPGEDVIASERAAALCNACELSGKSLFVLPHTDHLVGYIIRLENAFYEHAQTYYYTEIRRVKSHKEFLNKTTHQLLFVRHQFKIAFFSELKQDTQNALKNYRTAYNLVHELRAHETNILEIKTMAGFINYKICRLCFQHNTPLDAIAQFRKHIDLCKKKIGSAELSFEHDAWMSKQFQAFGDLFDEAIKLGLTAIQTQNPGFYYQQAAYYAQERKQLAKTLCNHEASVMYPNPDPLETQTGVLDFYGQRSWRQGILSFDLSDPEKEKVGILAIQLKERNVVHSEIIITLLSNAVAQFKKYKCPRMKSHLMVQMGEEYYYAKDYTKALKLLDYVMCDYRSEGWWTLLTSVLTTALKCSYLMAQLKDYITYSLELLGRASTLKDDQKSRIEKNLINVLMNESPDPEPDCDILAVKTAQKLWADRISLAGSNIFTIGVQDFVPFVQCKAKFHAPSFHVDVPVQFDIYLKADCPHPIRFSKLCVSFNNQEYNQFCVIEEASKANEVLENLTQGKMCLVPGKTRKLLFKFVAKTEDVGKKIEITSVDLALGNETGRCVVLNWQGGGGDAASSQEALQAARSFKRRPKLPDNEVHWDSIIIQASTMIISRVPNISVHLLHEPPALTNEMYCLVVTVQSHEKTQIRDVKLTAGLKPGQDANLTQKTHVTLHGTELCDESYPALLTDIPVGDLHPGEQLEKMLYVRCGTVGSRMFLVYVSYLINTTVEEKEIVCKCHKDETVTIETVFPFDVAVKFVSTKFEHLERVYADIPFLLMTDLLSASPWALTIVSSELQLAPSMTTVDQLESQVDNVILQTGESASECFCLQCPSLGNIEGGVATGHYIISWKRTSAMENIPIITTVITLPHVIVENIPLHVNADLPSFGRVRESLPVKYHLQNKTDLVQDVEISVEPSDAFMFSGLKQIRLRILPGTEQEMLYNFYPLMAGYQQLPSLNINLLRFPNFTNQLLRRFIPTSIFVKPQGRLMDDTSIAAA
UniProt Q9BSV6: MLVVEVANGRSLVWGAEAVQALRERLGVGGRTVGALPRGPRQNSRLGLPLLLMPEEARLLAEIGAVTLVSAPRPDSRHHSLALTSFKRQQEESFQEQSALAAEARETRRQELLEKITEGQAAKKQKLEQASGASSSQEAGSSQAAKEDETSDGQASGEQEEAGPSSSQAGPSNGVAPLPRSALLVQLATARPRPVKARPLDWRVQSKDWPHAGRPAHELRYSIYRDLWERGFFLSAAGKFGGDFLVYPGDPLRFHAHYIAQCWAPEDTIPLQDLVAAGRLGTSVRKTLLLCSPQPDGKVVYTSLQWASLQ
UniProt P28908: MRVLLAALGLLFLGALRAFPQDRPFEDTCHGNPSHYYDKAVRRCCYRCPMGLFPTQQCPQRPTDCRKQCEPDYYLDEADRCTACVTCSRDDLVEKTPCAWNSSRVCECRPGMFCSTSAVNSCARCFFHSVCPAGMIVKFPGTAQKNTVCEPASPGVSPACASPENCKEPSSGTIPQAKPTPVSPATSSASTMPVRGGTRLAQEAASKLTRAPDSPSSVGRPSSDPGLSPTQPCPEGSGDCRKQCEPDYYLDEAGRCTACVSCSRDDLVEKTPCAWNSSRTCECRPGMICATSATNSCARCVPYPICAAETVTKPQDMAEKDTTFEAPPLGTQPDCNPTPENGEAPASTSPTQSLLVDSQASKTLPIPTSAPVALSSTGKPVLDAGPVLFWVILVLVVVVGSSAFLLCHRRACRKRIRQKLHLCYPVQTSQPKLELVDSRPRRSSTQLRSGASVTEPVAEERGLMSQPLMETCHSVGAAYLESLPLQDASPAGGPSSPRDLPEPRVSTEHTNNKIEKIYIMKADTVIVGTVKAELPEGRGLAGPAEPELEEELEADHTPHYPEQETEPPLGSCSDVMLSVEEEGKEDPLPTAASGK
UniProt Q9H4I3: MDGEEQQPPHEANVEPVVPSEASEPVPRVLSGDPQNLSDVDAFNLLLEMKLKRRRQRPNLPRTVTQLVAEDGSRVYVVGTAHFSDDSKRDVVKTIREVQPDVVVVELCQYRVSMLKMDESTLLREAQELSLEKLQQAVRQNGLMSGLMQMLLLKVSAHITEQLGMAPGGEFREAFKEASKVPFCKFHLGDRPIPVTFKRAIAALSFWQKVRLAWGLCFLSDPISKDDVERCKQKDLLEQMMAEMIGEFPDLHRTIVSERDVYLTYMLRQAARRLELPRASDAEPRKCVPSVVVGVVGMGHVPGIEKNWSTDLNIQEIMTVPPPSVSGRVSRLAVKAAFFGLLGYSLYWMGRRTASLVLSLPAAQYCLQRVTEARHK
UniProt Q9P0U1: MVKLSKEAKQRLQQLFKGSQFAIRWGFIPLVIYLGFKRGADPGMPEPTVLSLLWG
UniProt Q629K1: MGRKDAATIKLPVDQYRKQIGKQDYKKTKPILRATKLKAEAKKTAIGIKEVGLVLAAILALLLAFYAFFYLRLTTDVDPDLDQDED

log2 fold change, inactive:
TP53BP2 isoform 3 (UniProt Q13625) 0.082, TRIP11 (UniProt Q15643) -0.016, TPP2 (UniProt Q5VZU9) 0.203, TPPP3 (UniProt Q9BW30) 0.003, TOM1 (UniProt O60784) 0.078, TPK1 (UniProt Q9H3S4) 0.01, TRUB2 (UniProt O95900) -0.171, TRIM4 (UniProt Q9C037) -0.066, TOM1L2 (UniProt Q6ZVM7) -0.04, TNRC6B (UniProt Q9UPQ9) -0.053, TREML2 (UniProt Q5T2D2) -0.022, TRAF7 (UniProt Q6Q0C0) -0.216, TRIM23 (UniProt P36406) 0.019, TRPM7 (UniProt Q96QT4) -0.028, TRIM24 (UniProt O15164) 0.049, TRAPPC1 (UniProt Q9Y5R8) 0.154, TRAPPC11 (UniProt Q7Z392) 0.015, TSEN34 (UniProt Q9BSV6) 0.051, TRPC4AP (UniProt Q8TEL6) 0.014, TP53BP1 isoform 2 (UniProt Q12888) 0.006, TNFRSF8 (UniProt P28908) 0.019, TRMT10C (UniProt Q7L0Y3) -0.045, TRIO (UniProt O75962) -0.29, TRPT1 isoform 4 (UniProt Q86TN4) -0.088, TRABD (UniProt Q9H4I3) 0.001, TRIP10 isoform 2 (UniProt Q15642) -0.032, TSEN2 (UniProt Q8NCE0) 0.018, TRMT61A (UniProt Q96FX7) 0.083, TRIM44 (UniProt Q96DX7) -0.074, TOMM7 (UniProt Q9P0U1) -0.014, TSC2 (UniProt P49815) 0.361, TRAPPC6B (UniProt Q86SZ2) 0.055, TRIQK (UniProt Q629K1) -0.002

Source: the supplement of paper PMC10849652
